# Results taken from PMC7924263.
# The chains behind the UniProt entries cited, without tags or fusion partners. Residues count along the entry.
# UniProt P0DTC6: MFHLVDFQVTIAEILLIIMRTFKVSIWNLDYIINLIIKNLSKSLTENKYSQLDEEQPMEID
# UniProt P0DTD2: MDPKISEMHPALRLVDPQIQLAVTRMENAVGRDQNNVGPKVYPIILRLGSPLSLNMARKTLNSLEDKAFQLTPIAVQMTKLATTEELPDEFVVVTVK
# UniProt Q7Z434: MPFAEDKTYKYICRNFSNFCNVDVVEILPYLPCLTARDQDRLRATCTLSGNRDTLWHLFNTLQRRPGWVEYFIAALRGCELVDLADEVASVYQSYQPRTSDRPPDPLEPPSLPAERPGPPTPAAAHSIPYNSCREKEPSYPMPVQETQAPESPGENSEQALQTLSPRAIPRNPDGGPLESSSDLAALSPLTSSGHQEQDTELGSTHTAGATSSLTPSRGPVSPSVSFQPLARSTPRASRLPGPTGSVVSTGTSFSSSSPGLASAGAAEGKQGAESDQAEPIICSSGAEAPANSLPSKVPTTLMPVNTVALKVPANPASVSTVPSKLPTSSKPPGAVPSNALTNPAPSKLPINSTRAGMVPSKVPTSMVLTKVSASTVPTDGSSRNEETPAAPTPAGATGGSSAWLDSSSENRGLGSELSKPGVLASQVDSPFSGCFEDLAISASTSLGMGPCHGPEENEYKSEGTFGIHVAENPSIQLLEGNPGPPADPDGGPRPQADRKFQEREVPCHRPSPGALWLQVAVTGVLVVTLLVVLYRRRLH
# UniProt P52948, residues 1-880: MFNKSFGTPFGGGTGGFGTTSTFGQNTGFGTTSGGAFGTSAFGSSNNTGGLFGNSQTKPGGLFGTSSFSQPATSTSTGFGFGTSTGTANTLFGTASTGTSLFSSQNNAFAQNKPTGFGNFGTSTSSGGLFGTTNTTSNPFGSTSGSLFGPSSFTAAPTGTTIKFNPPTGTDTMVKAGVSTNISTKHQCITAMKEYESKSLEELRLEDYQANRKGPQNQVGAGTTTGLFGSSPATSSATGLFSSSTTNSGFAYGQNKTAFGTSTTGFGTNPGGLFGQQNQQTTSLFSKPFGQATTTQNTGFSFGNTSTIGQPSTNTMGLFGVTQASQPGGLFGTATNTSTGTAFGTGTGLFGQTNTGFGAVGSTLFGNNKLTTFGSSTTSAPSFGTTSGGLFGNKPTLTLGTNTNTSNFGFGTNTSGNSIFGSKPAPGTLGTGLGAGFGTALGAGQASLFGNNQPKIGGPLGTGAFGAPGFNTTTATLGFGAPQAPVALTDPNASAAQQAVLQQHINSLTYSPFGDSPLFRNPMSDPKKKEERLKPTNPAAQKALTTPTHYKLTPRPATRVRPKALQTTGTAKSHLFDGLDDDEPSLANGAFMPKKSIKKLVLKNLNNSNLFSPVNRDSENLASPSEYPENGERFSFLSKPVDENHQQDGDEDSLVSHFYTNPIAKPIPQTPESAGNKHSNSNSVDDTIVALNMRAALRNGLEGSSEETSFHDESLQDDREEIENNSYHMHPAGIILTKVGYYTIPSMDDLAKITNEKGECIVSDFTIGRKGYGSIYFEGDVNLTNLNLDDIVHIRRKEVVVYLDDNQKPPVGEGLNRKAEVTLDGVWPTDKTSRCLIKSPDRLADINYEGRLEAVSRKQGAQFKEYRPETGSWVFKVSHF
# UniProt P78344: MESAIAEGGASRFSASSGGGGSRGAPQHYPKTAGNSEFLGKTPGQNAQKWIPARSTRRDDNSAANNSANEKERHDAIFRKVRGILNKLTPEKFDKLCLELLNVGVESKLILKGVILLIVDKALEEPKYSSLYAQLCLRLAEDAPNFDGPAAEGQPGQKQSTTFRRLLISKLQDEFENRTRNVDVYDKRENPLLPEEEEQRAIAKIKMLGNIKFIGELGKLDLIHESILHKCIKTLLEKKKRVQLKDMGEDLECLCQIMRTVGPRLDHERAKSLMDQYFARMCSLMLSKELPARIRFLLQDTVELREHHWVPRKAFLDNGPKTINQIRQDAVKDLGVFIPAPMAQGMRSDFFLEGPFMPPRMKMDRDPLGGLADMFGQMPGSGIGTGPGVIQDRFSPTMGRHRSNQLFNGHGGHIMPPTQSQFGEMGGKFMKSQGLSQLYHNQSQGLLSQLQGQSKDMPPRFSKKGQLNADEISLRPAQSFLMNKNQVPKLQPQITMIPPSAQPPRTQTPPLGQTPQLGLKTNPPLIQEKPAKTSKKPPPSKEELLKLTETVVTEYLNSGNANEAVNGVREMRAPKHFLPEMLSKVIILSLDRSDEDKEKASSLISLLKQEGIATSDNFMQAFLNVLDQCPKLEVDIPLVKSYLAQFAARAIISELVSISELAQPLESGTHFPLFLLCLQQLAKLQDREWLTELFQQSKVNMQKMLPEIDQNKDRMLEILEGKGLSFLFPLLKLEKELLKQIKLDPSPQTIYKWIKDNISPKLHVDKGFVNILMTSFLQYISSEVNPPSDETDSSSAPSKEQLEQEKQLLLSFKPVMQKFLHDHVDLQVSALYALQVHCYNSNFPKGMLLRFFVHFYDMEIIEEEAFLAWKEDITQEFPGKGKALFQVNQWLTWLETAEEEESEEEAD
# UniProt Q9NXV6: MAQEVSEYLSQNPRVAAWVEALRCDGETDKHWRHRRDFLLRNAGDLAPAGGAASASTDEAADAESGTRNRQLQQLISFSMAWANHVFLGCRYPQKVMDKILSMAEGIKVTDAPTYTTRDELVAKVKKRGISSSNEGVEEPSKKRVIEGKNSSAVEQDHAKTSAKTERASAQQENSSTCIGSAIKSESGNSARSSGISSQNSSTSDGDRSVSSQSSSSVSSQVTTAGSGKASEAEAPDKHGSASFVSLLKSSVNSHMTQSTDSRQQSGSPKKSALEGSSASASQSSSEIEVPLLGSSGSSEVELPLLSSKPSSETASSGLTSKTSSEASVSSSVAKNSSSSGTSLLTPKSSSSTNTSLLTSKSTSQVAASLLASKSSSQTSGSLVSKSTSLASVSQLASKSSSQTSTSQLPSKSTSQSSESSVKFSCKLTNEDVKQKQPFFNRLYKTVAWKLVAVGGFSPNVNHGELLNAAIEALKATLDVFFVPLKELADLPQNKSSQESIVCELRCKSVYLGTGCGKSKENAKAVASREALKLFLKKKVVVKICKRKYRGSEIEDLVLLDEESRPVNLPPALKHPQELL
# Results are given in words; binding and its absence hold for the method and conditions named. Binding seen in cells or lysates may run through a third protein. A yes stands for co-enrichment or nearness to the bait. Other partners may have been found. For some assays here: No binding means not detected with the bait.
# Experiments:
# Test in all cases: proximity labelling
# [1] = biological target: SARS-CoV-2 NSP1, HA-BASU fusion (SARS-CoV-2) (UniProt P0DTD1)
# [2] = biological target: SARS-CoV-2 ORF6, HA-BASU fusion (SARS-CoV-2) (UniProt P0DTC6)
# [3] = biological target: SARS-CoV-2 ORF9b, HA-BASU fusion (SARS-CoV-2) (UniProt P0DTD2)
# [4] = biological target: SARS-CoV-2 NSP5, HA-BASU fusion (SARS-CoV-2) (UniProt P0DTD1)
substance,measurement,setting,value
EIF3B (from UniProt P55884 1-814),binding,[1],binds
Mitochondrial Activation of Viral Signaling (MAVS) (from UniProt Q7Z434 1-540),binding,[2],binds
Nup98 (from UniProt P52948 1-880),binding,[3],no binding
EIF4G2 (from UniProt P78344 1-907),binding,[1],binds
CDKN2AIP (from UniProt Q9NXV6 1-580),binding,[4],binds
